Laboratory results reported in paper PMC10147665.
Results are given in words; binding and its absence hold for the method and conditions named. Binding seen in cells or lysates may run through a third protein. Some entries that bind do so weakly or less than the wild type. Tags and fused reporters may be left off the sequences shown.

Experiments:
[1] = target: T1, FLAG-tagged PID1 (Phosphotyrosine interaction domain-containing protein 1) (human) (UniProt Q7Z2X4); assay: co-IP; as a1, with alkaline phosphatase (ALP) treatment
T1 sequence: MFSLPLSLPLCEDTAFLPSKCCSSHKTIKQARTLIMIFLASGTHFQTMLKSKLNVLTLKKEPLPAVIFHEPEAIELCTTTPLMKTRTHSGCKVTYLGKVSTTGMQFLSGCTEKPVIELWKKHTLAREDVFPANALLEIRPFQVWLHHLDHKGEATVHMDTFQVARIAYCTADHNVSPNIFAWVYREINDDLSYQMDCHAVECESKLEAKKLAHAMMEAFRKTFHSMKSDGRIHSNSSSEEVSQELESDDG

[2] = target: T1, FLAG-tagged PID1 (Phosphotyrosine interaction domain-containing protein 1) (human); assay: co-IP; FLAG-tagged PID1 immunoprecipitated from RIPA lysates, blot for endogenous PDPK1; cells with or without growth factors; antibody 2 h, Protein A/G agarose 12 h, 4 °C

B1: endogenous PDPK1 (protein, UniProt O15530 1-556)
chain: MARTTSQLYDAVPIQSSVVLCSCPSPSMVRTQTESSTPPGIPGGSRQGPAMDGTAAEPRPGAGSLQHAQPPPQPRKKRPEDFKFGKILGEGSFSTVVLARELATSREYAIKILEKRHIIKENKVPYVTRERDVMSRLDHPFFVKLYFTFQDDEKLYFGLSYAKNGELLKYIRKIGSFDETCTRFYTAEIVSALEYLHGKGIIHRDLKPENILLNEDMHIQITDFGTAKVLSPESKQARANSFVGTAQYVSPELLTEKSACKSSDLWALGCIIYQLVAGLPPFRAGNEYLIFQKIIKLEYDFPEKFFPKARDLVEKLLVLDATKRLGCEEMEGYGPLKAHPFFESVTWENLHQQTPPKLTAYLPAMSEDDEDCYGNYDNLLSQFGCMQVSSSSSSHSLSASDTGLPQRSGSNIEQYIHDLDSNSFELDLQFSEDEKRLLLEKQAGGNPWHQFVENNLILKMGPVDKRKGLFARRRQLLLTEGPHLYYVDPVNKVLKGEIPWSQELRPEAKNFKTFFVHTPNRTYYLMDPSGNAHKWCRKIQEVWRQRYQSHPDAAVQ
binding [1]: binds weakly | binding [2]: binds
